Laboratory results as given in publication PMC7977447.

Sequences of proteins named here, by UniProt entry; tags and fusion partners are left off. A change or cut given only in a name is not applied to a line headed by its entry.
UniProt Q8K4Z2: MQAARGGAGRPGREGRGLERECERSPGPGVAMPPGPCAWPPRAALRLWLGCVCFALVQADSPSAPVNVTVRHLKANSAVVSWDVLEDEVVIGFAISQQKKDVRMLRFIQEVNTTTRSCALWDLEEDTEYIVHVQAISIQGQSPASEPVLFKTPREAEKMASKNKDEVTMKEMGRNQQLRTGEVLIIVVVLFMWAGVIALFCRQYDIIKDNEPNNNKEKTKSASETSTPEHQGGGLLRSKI

Target: Flag-tagged wild-type Fndc5 (fibronectin type III domain containing 5) (UniProt Q8K4Z2)
Assay: co-IP; Flag-Fndc5 and myc-SIRT2 co-transfected into HepG2 cells; lysis in radioimmunoprecipitation assay buffer, protein A/G-agarose beads, immunoblotting

binding: binds
B1: Myc-tagged SIRT2 (enzyme, UniProt Q8IXJ6 1-389)
chain: MAEPDPSHPLETQAGKVQEAQDSDSDSEGGAAGGEADMDFLRNLFSQTLSLGSQKERLLDELTLEGVARYMQSERCRRVICLVGAGISTSAGIPDFRSPSTGLYDNLEKYHLPYPEAIFEISYFKKHPEPFFALAKELYPGQFKPTICHYFMRLLKDKGLLLRCYTQNIDTLERIAGLEQEDLVEAHGTFYTSHCVSASCRHEYPLSWMKEKIFSEVTPKCEDCQSLVKPDIVFFGESLPARFFSCMQSDFLKVDLLLVMGTSLQVQPFASLISKAPLSTPRLLINKEKAGQSDPFLGMIMGLGGGMDFDSKKAYRDVAWLGECDQGCLALAELLGWKKELEDLVRREHASIDAQSGAGVPNPSTSASPKKSPPPAKDEARTTEREKPQ

No constants are given. Whether binding was seen depends on the method and setting. Binding seen in cells or lysates may run through a third protein. Binding calls can cover weak binding; strength is not graded here. Tags and fused reporters may be left off the sequences shown.
